From patent US20160139132A1, “Method of Diagnosis or Prognosis of a Neoplasm Comprising Determining the Level of Expression of a Protein in Stromal Cells Adjacent to the Neoplasm” (Thomas Jefferson University, priority 2009, published 2016)
At least one structure is not confirmed: it was looked up by name or label, or the drawing left a doubt.

System: Met-1 cells
Experiment: Met-1 mammary tumor cells orthotopically implanted into mammary glands of Cav-1 (−/−) deficient FVB mice
Assay type: in vivo
Settings: standard dose of rapamycin

In the case of CO[C@H]1C[C@@H]2CC[C@@H](C)[C@@](O)(O2)C(=O)C(=O)N2CCCC[C@H]2C(=O)O[C@H]([C@H](C)C[C@@H]2CC[C@@H](O)[C@H](OC)C2)CC(=O)[C@H](C)/C=C(\C)[C@@H](O)[C@@H](OC)C(=O)[C@H](C)C[C@H](C)/C=C/C=C/C=C/1C [rapamycin], the “effect of the Cav-1 (−/−) mammary fat pad microenvironment on tumor mass and vascularization” value (5 weeks post tumor cell injection) is reported as “nearly completely abolished” and the tumor growth (Cav-1 deficient tumor microenvironment) is reported as “drastically reduced”.
